In the supplement of paper PMC7125110:
± gives the standard error. The uncertainty is large for many entries.

B1: glmS ribozyme (parent)
chain: AUAAAAGCGCCAGAACUACAGAAAUGUAGUUGACGAGGAGGAGGUUUAUCGAAUUUUCGGCGGAUGCCUCCAAA

Variants of: B1
Assay: self-cleavage kobs at 640 uM GlcN6P; higher = faster cleavage; RNA array
Details: with glucosamine-6-phosphate
Outline: (§1)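 In situ transcription by E. coli RNA polymerase produced barcoded ribozyme variants on sequenced MiSeq chips, and a hybridised Cy3 probe tracked them at 37 °C. Glucosamine-6-phosphate was flowed in at 40 μM to 10 mM in HEPES/KCl/Mg(OAc)2 buffer. kcat and KM were taken from weighted Michaelis–Menten fits of kobs values from exponential decay fits.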

| Variant | self-cleavage kobs at 640 uM GlcN6P [s⁻¹] |
| --- | --- |
| AUAAAAGCGACAGGACUACAGAAAUGUAGUUUACGAUUAGGAGGUUUAUCGAAUUUUCGGCGGAUGCCUACAAA [C10A A14G G32U G37U G38U C70A] | 4.16e-05 ± 2.8e-05 |
| AUAAAAACGCCAGAACUACAGAAAUGUAGUUGGCGAGGAGGAGGUUUAUCGGAUUUUCGGCGGAUGCAUCCAAA [G7A A33G A52G C68A] | 0.00128 ± 0.00068 |
| AUAAAGACGCCAGAACUACAGAAAUGUAGUUGACGAGGAGGAGGUUUAUCGAAUUUACGGCGGAUACGUCCAAA [A6G G7A U57A G66A C68G] | 0.000595 ± 0.0004 |
| AUAAAAGCGGAAGAACUACAGAAAUGUAGCUGACGCUGAGGAGGUUUAUCGAAUUUUCGGCGGAUGCCUAUAAA [C10G C11A U30C A36C G37U C70A C71U] | 0.00106 ± 0.00055 |
| AUAAAAGUGCCAGAACUACAGAAAUGUAGUUGACGAGGAGGAGGUUUAUGGAAUUUUCGGCGUAUGCCUCCAAA [C8U C50G G63U] | 2.34e-05 ± 2.3e-05 |
| AUAAAAGCGACAGAACUACAGAAAUGUAGUUGACGAGGAGGAGGUUUAUCGAAUUUUCGGCGGAUGCCUUAAAA [C10A C70U C71A] | 3.45e-05 ± 2.8e-05 |
| AUAAAAGUGCCAGAGUUACAGAAAUGUAGUUGACGAGGAGGAGGUUUAUCGAAUUUUCGGCGGAUGCGUCCAAA [C8U A15G C16U C68G] | 6.08e-05 ± 3.8e-05 |
| AUAAAAGGGCCAGAAGUACAGAAAUGUAGUUGACGUGGAGGAGGUUUAUGGAAUUUUCGGCGGAUGCCUCCAAA [C8G C16G A36U C50G] | 0.000951 ± 0.00056 |
| AUAAAAUCGCCAGAACUACAGAAAUGUAGUUGACGAGGAGGAGGUAUAUGGAAUUUUCGACGGAGGCCACCAAA [G7U U46A C50G G60A U65G U69A] | 3.82e-05 ± 2.4e-05 |
| AUAAAAGCGGCAGAACUACAGAAAUGUAGUUGACGAGGAGGAGGUUUAUUGAAUUUUCGGAGGAUGGCUCCAAA [C10G C50U C61A C67G] | 3.69e-05 ± 3e-05 |
| AUAAACGCGCCAGAACUACAGAAAUGUAGUUGACGAGGAGGAGGUUUAUCGAUUUUUCGGCGGAUGCCUCCAAA [A6C A53U] | 1.46e-05 ± 9.5e-06 |
| AUAAAAUCGCCAGAACUACAGAAAUGUAAUUGACGAGGAGGAGGUUUAUCGAGUUUUCGGCGGAUGCCUACAAA [G7U G29A A53G C70A] | 0.00219 ± 0.0017 |

Random excerpt: three entries already listed.

| Variant | self-cleavage kobs at 640 uM GlcN6P [s⁻¹] |
| --- | --- |
| AUAAAAACGCCAGAACUACAGAAAUGUAGUUGGCGAGGAGGAGGUUUAUCGGAUUUUCGGCGGAUGCAUCCAAA [G7A A33G A52G C68A] | 0.00128 ± 0.00068 |
| AUAAAGACGCCAGAACUACAGAAAUGUAGUUGACGAGGAGGAGGUUUAUCGAAUUUACGGCGGAUACGUCCAAA [A6G G7A U57A G66A C68G] | 0.000595 ± 0.0004 |
| AUAAAAGCGGAAGAACUACAGAAAUGUAGCUGACGCUGAGGAGGUUUAUCGAAUUUUCGGCGGAUGCCUAUAAA [C10G C11A U30C A36C G37U C70A C71U] | 0.00106 ± 0.00055 |

Variants of: B1
Assay: self-cleavage kobs at 2500 uM GlcN6P; higher = faster cleavage; RNA array
Details: with glucosamine-6-phosphate
Outline: as §1

| Variant | self-cleavage kobs at 2500 uM GlcN6P [s⁻¹] |
| --- | --- |
| AUAAAAGCGACAGGACUACAGAAAUGUAGUUUACGAUUAGGAGGUUUAUCGAAUUUUCGGCGGAUGCCUACAAA [C10A A14G G32U G37U G38U C70A] | 5.11e-05 ± 2.8e-05 |
| AUAAAAGCGACAGAACUACAGAAAUGUAGUUGACGAGGAGGAGGUUUAUCGAAUUUUCGGCGGAUGCCUUAAAA [C10A C70U C71A] | 2.52e-05 ± 1.9e-05 |
| AUAAAAGCGCCAGAACUACAGAAAUGUAGUUGACGAGGAGGAGGUUUGUUGUAUUUUCGGCGGAUGCCUGCAAA [A48G C50U A52U C70G] | 2.01e-05 ± 1.9e-05 |
| AUAAAAGUGCCAGAGUUACAGAAAUGUAGUUGACGAGGAGGAGGUUUAUCGAAUUUUCGGCGGAUGCGUCCAAA [C8U A15G C16U C68G] | 3.71e-05 ± 2.2e-05 |
| AUAAAAGGGCCAGAAGUACAGAAAUGUAGUUGACGUGGAGGAGGUUUAUGGAAUUUUCGGCGGAUGCCUCCAAA [C8G C16G A36U C50G] | 5.84e-05 ± 3.1e-05 |

Variants of: B1
Assay: self-cleavage kobs at 40 uM GlcN6P; higher = faster cleavage; RNA array
Details: with glucosamine-6-phosphate
Outline: as §1

| Variant | self-cleavage kobs at 40 uM GlcN6P [s⁻¹] |
| --- | --- |
| AUAAAAGCGCCAGAACUACAGAAAUGUAGUUGACGAGGAGGAGGUUAAUCGAGUAUUCGGCGGAUCCCUCCAAA [U47A A53G U55A G66C] | 2.45e-05 ± 2.2e-05 |
| AUAAAAGCGCCAGAACUACAGAAAUGUAGUUGACGAGGAGGAGGUUAAUCGAAUUUUCGGCGGACGCCUCCAAA [U47A U65C] | 3.24e-05 ± 2.3e-05 |
| AUAAAAGCGCCAGAACUACAGAAAUGUAGUUGACGAGGAGGAGGUUUAUCGAAUUGUCGGCGGAUGCCGCCAAA [U56G U69G] | 2.78e-05 ± 1.7e-05 |
| AUAAAAGCGCCAGAACUACAGAAAUGUAGUUGACGAGGAGGAGGUUUAUUGAAUUGUCGGCGGAUGCCUGCAAA [C50U U56G C70G] | 3.76e-05 ± 2.2e-05 |
| AUAAAAGCGCCAGAACUACAGAAAUGUAGUUGACGAGGAGGAGGUUUGUUGUAUUUUCGGCGGAUGCCUGCAAA [A48G C50U A52U C70G] | 2.76e-05 ± 2.3e-05 |
| AUAAAAGCGCCAGAACUACAGAAAUGUAGUUGACGAGGAGGAGGUUGAUCGGAUUUUCGGCGGAUGCCUCCAAA [U47G A52G] | 1.75e-05 ± 1.3e-05 |
| AUAAAAGCGCCAGAACUACAGAAAUGUAGUUGACGAGGAGGAGGUUUAUCGAAUUUUCGGCGGAAGCCUACAAA [U65A C70A] | 2.04e-05 ± 1.9e-05 |
| AUAAAAGCGCCAGAACUACAGAAAUGUAGUUGACGAGGAGGAGAUUUAUCGAAUUUUCGGCGGAGGUCUCCAAA [G44A U65G C67U] | 2.02e-05 ± 1.5e-05 |
| AUAAAAGCGCCAGAACUACAGAAAUGUAGUUGACGAGGAGGAGGUUUAUCGAAUUUUAGGCGGAUGCGUCCAAA [C58A C68G] | 1.54e-05 ± 1.3e-05 |
| AUAAAAGCGCCAGAACUACAGAAAUGUAGUUGACGAGGAUGAGGUUUAUCGAAUUUUCGGCGGAUGCCUACAAA [G40U C70A] | 1.49e-05 ± 1.1e-05 |
| AUAAAAGCGCCAGAACUACAGAAAUGUAGUUGACGAGGAGGAGGCUUAUCGAAUUUUCGGCGGAUUCCUCCAAA [U45C G66U] | 2.65e-05 ± 1.9e-05 |
| AUAAAAGCGCCAGAACUACAGAAAUGUAGUUGACGAGGAGGAGGUUUAUCGAAUUUUUGGCGGAUGCAUCGAAA [C58U C68A C71G] | 2.77e-05 ± 2.4e-05 |

Variants of: B1
Assay: self-cleavage kobs at 10000 uM GlcN6P; higher = faster cleavage; RNA array
Details: with glucosamine-6-phosphate
Outline: as §1

| Variant | self-cleavage kobs at 10000 uM GlcN6P [s⁻¹] |
| --- | --- |
| AUAAAAGUGCCAGAACUACAGAAAUGUAGUUGACGAGGAGGAGGUUUAUGGAAUUUUCGGCGUAUGCCUCCAAA [C8U C50G G63U] | 2.03e-05 ± 1.9e-05 |
| AUAAAAGUGCCAGAGUUACAGAAAUGUAGUUGACGAGGAGGAGGUUUAUCGAAUUUUCGGCGGAUGCGUCCAAA [C8U A15G C16U C68G] | 3.1e-05 ± 2e-05 |
| AUAAAAGCGCCAGAACUACAGAAAUGUAGUUGACGAGGAGGAGGUUUAUCGAAUUUUAGGCGGAUGCGUCCAAA [C58A C68G] | 1.53e-05 ± 1e-05 |
| AUAAAAUCGCCAGAACUACAGAAAUGUAGUUGACGAGGAGGAGGUAUAUGGAAUUUUCGACGGAGGCCACCAAA [G7U U46A C50G G60A U65G U69A] | 0.000779 ± 0.00045 |

Variants of: B1
Assay: self-cleavage kobs at 160 uM GlcN6P; higher = faster cleavage; RNA array
Details: with glucosamine-6-phosphate
Outline: as §1

| Variant | self-cleavage kobs at 160 uM GlcN6P [s⁻¹] |
| --- | --- |
| AUAAAAGCGCCAGAACUACAGAAAUGUAGUUGACGAGGAGGAGGUUUAUCGAAUUGUCGGCGGAUGCCGCCAAA [U56G U69G] | 4.18e-05 ± 2.4e-05 |
| AUAAAAGCGACAGAACUACAGAAAUGUAGUUGACGAGGAGGAGGUUUAUCGAAUUUUCGGCGGAUGCCUUAAAA [C10A C70U C71A] | 3.37e-05 ± 2.3e-05 |
| AUAAAAGUGCCAGAGUUACAGAAAUGUAGUUGACGAGGAGGAGGUUUAUCGAAUUUUCGGCGGAUGCGUCCAAA [C8U A15G C16U C68G] | 4.43e-05 ± 2.8e-05 |
